The target in this experiment is T1, Cav3.2-GFP tagged calcium channel (human, UniProt O95180 1-2353).
T1 construct: also called Cav3.2 T-type calcium channel; source: tsA-201 cells, transfected (lipofectamine 2000), in lysate; not shown: GFP, C-terminal, kept
The experiment in a line: co-IP; tsA-201 cells co-expressing Cav3.2-GFP and mCherry-USP5 (WT or K113R); lysed in modified RIPA buffer (50 mM Tris, 100 mM NaCl, 0.2% Triton X-100, 0.2% NP-40, 10 mM EDTA, pH 7.5); Cav3.2-GFP precipitated with anti-GFP antibody and Protein G/A beads overnight at 4 °C; blot probed with mCherry antibody; densitometry.

Sequences of proteins named here, by UniProt entry; tags and fusion partners are left off.
UniProt O95180: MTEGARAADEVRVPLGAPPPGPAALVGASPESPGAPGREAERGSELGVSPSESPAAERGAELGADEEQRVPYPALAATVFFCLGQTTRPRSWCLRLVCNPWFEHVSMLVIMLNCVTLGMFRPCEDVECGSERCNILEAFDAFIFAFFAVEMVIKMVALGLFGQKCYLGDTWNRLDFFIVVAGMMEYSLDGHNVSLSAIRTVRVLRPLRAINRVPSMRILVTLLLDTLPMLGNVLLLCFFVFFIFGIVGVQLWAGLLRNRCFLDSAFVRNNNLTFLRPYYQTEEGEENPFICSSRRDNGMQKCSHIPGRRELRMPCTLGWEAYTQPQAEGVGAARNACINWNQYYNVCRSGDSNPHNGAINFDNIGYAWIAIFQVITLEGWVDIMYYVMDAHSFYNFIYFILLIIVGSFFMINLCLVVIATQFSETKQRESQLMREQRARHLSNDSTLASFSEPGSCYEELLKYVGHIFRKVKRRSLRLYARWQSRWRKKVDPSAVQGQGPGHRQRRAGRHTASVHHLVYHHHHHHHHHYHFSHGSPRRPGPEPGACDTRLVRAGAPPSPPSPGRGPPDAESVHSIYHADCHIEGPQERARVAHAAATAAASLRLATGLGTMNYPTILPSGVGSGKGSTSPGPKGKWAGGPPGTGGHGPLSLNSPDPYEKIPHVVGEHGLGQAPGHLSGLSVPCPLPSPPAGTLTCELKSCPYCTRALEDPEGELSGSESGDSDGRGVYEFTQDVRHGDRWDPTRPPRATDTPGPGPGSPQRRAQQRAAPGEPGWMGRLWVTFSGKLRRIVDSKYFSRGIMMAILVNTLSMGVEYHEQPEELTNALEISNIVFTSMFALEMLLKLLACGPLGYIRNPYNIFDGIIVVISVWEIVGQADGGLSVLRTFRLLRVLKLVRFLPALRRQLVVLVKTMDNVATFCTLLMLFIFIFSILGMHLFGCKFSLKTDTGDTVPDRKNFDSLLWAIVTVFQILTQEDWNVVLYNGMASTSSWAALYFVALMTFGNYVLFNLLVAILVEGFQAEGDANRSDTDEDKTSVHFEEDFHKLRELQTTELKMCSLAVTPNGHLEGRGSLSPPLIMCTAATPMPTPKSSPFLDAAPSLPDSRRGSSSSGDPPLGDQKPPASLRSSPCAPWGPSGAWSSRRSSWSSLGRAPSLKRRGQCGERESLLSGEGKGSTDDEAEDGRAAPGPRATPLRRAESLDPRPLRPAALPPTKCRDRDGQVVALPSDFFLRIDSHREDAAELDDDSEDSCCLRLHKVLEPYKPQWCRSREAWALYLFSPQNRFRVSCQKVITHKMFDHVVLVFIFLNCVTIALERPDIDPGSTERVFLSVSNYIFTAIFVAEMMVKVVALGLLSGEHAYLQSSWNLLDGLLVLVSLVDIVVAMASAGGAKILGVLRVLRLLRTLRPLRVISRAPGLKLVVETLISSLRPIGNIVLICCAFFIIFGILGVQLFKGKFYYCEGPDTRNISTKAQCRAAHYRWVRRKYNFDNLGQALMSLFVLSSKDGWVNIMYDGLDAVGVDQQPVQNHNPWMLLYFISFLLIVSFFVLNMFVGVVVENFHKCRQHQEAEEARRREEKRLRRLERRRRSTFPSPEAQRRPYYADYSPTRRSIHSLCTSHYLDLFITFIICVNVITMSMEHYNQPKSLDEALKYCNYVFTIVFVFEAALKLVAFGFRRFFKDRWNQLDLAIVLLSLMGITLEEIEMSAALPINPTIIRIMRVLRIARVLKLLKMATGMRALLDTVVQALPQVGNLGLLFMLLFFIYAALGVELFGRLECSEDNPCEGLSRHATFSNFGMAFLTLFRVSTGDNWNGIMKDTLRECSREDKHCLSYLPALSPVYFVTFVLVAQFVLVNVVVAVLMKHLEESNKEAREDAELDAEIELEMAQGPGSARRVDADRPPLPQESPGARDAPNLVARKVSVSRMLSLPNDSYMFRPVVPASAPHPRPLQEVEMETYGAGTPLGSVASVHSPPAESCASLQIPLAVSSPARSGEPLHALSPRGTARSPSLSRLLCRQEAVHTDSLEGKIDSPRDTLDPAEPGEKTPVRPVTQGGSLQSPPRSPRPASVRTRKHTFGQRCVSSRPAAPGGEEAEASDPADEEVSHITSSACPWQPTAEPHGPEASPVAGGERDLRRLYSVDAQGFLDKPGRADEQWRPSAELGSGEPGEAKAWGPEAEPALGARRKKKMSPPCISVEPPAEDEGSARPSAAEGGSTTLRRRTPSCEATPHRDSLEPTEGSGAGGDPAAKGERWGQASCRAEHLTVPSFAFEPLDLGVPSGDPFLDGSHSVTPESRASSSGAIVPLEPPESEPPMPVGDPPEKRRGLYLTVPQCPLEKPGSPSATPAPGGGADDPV

Results are given in words; binding and its absence hold for the method and conditions named. In cells and extracts the contact can be indirect. Some entries that bind do so weakly or less than the wild type.

These results are taken from article PMC6712834, “SUMOylation regulates USP5-Cav3.2 calcium channel interactions” (Molecular Brain, 2019).

Turning to “mCherry tagged USP5 (ubiquitin specific peptidase 5), wild type (from UniProt P45974-1 1-858) (enzyme)”, the binding entry was “binds”.
